Test results from the supplement of paper PMC6411743.
± gives the standard deviation of the averaged measurements. The list shows a part of the results.

By UniProt entry, the sequences of proteins in these tests, tags left out. Where a name states a change or a piece, a line headed by the entry shows the natural chain unless it says otherwise.
UniProt Q92945: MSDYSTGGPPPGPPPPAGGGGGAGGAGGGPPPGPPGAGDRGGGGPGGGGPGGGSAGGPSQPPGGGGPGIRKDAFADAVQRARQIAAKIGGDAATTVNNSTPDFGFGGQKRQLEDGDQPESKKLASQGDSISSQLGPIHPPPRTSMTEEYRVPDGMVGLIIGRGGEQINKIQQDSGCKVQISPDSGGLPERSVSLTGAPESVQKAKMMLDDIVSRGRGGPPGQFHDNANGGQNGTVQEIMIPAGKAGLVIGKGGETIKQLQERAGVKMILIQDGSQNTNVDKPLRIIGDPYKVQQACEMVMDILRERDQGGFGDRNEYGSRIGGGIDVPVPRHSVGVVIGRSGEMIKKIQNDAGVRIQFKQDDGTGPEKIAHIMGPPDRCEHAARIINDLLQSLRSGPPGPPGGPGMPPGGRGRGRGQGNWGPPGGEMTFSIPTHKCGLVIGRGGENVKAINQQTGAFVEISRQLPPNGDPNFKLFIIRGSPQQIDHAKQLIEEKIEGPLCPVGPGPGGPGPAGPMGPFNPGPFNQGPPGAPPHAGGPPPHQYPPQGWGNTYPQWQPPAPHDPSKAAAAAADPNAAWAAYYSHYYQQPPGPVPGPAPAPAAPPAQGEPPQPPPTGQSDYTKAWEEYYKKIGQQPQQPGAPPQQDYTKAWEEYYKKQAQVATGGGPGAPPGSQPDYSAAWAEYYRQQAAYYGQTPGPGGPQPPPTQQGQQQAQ
UniProt O15446, whole entry: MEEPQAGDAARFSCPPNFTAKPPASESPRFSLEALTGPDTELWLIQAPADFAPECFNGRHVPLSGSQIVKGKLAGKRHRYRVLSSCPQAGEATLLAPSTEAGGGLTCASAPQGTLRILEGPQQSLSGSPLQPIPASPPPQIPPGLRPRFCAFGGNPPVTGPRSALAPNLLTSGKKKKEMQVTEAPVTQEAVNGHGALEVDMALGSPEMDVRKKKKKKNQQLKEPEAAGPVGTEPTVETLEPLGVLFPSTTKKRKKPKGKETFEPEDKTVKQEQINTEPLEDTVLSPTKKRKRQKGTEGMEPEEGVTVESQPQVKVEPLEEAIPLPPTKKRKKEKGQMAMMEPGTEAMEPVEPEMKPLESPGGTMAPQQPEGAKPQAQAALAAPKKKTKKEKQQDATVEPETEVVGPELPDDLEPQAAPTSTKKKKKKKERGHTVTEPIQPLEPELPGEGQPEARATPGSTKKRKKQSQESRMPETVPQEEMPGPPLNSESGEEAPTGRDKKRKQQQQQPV
UniProt O15260: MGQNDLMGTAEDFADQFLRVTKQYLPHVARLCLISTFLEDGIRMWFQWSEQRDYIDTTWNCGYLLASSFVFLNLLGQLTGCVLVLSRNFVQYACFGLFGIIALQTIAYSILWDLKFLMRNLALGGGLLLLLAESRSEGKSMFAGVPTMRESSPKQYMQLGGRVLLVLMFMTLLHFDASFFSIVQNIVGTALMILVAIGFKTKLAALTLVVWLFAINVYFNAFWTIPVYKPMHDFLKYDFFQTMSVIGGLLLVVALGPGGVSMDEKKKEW
UniProt O43665: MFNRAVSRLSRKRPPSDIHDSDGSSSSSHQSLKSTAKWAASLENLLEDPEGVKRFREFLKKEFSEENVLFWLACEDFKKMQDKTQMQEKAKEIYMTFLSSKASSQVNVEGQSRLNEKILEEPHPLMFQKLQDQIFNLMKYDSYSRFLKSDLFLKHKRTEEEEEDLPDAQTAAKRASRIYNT
UniProt O00754: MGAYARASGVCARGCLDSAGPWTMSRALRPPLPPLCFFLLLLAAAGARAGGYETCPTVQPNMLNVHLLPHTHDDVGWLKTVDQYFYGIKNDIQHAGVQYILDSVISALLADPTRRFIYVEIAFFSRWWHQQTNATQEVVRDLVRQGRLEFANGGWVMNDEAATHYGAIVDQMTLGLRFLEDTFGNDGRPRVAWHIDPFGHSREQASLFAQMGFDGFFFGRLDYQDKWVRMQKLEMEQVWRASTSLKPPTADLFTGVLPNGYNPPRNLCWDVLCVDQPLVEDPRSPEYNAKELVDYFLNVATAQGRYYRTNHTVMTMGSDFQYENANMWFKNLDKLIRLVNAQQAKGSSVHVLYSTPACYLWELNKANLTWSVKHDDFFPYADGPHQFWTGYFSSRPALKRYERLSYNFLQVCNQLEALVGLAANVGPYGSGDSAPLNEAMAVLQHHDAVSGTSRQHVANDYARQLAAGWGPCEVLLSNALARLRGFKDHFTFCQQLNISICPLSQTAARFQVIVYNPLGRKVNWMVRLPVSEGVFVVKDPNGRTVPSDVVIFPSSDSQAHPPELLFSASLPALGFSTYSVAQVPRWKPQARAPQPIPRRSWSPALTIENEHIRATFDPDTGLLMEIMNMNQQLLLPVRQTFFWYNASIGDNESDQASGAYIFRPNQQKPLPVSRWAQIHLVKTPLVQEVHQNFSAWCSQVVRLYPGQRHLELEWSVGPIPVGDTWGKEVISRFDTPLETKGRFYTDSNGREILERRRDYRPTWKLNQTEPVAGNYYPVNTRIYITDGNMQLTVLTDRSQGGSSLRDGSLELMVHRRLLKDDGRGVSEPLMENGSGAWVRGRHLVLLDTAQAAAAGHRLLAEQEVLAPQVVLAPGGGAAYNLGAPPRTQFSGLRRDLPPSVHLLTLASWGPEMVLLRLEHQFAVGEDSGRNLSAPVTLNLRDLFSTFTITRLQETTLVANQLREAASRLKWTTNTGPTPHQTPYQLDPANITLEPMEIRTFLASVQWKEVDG
UniProt O43865, whole entry: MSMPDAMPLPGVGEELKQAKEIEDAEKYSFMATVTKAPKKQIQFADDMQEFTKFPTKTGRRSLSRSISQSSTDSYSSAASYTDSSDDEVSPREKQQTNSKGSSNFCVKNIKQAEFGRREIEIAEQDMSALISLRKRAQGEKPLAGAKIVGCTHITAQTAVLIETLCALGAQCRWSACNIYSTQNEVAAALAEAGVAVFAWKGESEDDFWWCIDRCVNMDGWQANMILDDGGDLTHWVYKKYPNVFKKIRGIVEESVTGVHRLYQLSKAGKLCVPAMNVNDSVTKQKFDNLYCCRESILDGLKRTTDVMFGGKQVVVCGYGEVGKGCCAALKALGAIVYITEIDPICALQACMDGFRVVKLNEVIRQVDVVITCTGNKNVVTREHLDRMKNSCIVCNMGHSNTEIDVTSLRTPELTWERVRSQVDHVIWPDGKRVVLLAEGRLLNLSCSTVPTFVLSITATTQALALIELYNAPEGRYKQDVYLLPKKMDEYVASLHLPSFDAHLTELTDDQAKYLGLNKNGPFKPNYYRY
UniProt O60264, whole entry: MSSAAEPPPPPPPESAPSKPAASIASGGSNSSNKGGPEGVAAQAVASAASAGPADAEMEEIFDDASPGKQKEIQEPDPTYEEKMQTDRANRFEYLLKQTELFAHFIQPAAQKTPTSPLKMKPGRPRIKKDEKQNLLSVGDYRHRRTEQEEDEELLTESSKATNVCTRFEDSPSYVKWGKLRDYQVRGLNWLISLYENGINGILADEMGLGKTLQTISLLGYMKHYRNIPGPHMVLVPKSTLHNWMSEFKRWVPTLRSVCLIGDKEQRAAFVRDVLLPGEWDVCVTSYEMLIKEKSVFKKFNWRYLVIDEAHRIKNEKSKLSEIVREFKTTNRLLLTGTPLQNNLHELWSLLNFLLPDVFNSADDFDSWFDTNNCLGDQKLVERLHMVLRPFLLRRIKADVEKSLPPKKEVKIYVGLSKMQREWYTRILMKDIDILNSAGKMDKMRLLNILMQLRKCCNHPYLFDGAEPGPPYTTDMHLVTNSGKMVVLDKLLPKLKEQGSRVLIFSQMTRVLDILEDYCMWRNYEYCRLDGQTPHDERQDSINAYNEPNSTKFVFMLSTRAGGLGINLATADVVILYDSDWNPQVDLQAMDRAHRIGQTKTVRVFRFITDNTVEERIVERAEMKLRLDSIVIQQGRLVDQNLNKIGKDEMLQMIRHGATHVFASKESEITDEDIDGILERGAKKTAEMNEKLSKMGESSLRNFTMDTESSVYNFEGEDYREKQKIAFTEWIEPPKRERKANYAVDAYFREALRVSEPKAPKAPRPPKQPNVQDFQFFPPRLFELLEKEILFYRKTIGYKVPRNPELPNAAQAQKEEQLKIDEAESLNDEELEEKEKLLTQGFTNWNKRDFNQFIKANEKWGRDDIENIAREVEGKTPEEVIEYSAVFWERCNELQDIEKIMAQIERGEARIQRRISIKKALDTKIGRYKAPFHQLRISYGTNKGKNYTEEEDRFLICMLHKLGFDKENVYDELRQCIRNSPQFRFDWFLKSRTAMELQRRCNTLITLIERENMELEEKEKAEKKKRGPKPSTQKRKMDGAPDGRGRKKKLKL
UniProt O14974: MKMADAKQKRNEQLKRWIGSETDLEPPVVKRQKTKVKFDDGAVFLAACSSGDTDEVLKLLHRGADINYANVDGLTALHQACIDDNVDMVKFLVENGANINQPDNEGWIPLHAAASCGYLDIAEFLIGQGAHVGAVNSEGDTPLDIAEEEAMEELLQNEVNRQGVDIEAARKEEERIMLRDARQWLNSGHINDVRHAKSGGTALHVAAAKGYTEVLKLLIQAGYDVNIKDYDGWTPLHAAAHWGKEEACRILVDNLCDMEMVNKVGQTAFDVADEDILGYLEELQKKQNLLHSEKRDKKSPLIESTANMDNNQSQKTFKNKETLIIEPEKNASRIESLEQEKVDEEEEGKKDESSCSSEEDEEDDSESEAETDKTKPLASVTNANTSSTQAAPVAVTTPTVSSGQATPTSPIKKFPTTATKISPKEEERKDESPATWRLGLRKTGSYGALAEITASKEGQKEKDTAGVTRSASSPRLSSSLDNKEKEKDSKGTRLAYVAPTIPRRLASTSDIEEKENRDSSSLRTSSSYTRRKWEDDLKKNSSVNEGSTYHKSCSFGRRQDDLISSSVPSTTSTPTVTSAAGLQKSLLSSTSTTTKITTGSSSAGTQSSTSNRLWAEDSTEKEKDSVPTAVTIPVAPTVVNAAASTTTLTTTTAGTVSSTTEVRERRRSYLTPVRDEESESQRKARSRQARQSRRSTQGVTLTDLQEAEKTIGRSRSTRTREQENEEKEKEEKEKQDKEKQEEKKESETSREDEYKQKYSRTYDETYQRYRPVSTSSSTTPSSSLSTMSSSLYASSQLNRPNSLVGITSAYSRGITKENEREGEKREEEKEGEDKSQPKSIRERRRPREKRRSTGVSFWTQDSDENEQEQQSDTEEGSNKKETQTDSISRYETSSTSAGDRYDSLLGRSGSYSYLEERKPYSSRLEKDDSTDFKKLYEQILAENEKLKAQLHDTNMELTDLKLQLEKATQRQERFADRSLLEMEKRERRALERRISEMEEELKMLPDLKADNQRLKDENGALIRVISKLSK
UniProt O00303, whole entry: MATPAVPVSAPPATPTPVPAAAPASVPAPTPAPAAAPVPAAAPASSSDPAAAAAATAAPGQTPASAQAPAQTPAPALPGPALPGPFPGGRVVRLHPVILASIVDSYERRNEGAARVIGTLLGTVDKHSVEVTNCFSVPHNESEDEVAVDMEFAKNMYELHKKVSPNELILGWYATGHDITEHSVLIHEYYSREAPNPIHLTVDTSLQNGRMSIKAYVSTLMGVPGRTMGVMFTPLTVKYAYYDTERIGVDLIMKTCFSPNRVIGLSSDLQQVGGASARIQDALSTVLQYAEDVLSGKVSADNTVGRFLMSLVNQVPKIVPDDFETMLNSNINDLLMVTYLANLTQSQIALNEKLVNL
UniProt O60568: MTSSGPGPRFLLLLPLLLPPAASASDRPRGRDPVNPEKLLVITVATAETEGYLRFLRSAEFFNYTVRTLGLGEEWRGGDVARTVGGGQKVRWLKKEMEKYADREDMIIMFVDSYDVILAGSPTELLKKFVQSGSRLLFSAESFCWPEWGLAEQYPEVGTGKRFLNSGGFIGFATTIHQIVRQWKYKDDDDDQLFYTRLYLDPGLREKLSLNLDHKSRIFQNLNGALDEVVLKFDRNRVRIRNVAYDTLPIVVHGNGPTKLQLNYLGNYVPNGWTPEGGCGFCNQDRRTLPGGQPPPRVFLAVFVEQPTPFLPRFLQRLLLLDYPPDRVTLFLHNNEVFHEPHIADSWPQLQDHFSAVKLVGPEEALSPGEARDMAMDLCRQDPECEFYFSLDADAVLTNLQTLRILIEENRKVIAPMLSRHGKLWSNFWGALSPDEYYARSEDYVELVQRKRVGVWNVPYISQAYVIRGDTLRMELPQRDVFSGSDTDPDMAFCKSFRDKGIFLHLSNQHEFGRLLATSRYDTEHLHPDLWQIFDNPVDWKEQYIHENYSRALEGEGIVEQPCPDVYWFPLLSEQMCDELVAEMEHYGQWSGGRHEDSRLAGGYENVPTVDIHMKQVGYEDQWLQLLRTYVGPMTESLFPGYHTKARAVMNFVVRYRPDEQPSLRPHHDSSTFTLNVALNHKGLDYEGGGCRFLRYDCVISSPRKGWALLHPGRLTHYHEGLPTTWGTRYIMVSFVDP
UniProt O14880: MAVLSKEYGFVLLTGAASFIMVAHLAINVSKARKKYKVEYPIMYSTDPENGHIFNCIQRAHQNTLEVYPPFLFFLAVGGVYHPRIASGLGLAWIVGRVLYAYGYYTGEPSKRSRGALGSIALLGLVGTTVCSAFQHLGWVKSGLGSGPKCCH

Compound: Nc1nc2c(ncn2[C@@H]2O[C@H](COP(=O)(O)OP(=O)(O)OP(=O)(O)O)[C@@H](O)[C@H]2O)c(=O)[nH]1 [guanosine triphosphate]
Experiment: NP40-soluble protein abundance relative to vehicle (solubility fold change) (ratio); higher = more soluble protein in presence of GTP
How it was run: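 Values are fold changes against the detergent-processed vehicle, based on vsn-normalised intensities. Jurkat crude lysate was treated at eight concentrations from 0.1 to 10 mM (10 min at room temperature, then 3 min at 37 °C), solubilised with 0.8% NP40 and benzonase, ultracentrifuged and analysed by TMT-labelled LC-MS/MS over three independent experiments.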

Target	NP40-soluble protein abundance (concentration: 0.1mM)	NP40-soluble protein abundance (concentration: 0.5mM)	NP40-soluble protein abundance (concentration: 1mM)	NP40-soluble protein abundance (concentration: 2mM)	NP40-soluble protein abundance (concentration: 4mM)	NP40-soluble protein abundance (concentration: 6mM)	NP40-soluble protein abundance (concentration: 8mM)	NP40-soluble protein abundance (concentration: 10mM)
EEF2K (UniProt O00418)	0.988 ± 0.074	1.01 ± 0.058	0.944 ± 0.02	0.954 ± 0.044	0.913 ± 0.028	0.951 ± 0.052	0.949 ± 0.068	0.941 ± 0.039
PSMD12 (UniProt O00232)	1.04 ± 0.075	1.06 ± 0.11	1.01 ± 0.1	1.02 ± 0.13	1.02 ± 0.11	1.03 ± 0.14	0.991 ± 0.12	0.96 ± 0.13
M0R263 and related entries (UniProt Q92945)	0.914 ± 0.043	0.909 ± 0.082	0.963 ± 0.079	0.914 ± 0.1	0.912 ± 0.096	0.919 ± 0.098	0.925 ± 0.078	0.936 ± 0.075
NPC1 (UniProt O15118)	0.955 ± 0.061	0.94 ± 0.04	0.956 ± 0.026	0.966 ± 0.041	0.946 ± 0.044	0.964 ± 0.055	0.916 ± 0.064	1.01 ± 0.055
UniProt O15446 and related entries	1.05 ± 0.012	1.04 ± 0.047	1.16 ± 0.046	1.17 ± 0.098	1.22 ± 0.071	1.31 ± 0.071	1.43 ± 0.022	1.49 ± 0.1
UniProt O15260 and related entries	1.13 ± 0.021	1.03 ± 0.05	1.05 ± 0.022	1.01 ± 0.07	1.04 ± 0.074	0.956 ± 0.055	1.03 ± 0.044	0.953 ± 0.03
UniProt O43913 and related entries	1.07 ± 0.04	1.12 ± 0.079	0.993 ± 0.075	1 ± 0.078	1.01 ± 0.06	0.982 ± 0.013	1 ± 0.038	1.01 ± 0.074
UniProt O14545 and related entries	1.09 ± 0.079	1.01 ± 0.049	1.08 ± 0.15	1.05 ± 0.062	1.04 ± 0.14	1.07 ± 0.11	1.06 ± 0.099	1.03 ± 0.13
UniProt O43172-2|O43172	1.09 ± 0.067	1.15 ± 0.086	1.11 ± 0.059	1.13 ± 0.071	1.15 ± 0.1	1.17 ± 0.11	1.21 ± 0.12	1.18 ± 0.08
UniProt O43665 and related entries	0.802 ± 0.079	0.748 ± 0.035	0.872 ± 0.14	0.865 ± 0.068	0.791 ± 0.038	0.837 ± 0.034	0.79 ± 0.089	0.909 ± 0.14
M0R117 and related entries (UniProt Q02543)	1.06 ± 0.1	1.02 ± 0.053	1 ± 0.19	1.02 ± 0.2	0.938 ± 0.21	0.92 ± 0.2	0.885 ± 0.27	0.956 ± 0.25
UniProt O00716 and related entries	1.02 ± 0.016	0.988 ± 0.021	1.01 ± 0.0076	1.04 ± 0.011	1.03 ± 0.039	1 ± 0.036	0.99 ± 0.034	1.04 ± 0.047
B4GAT1 (UniProt O43505)	0.995 ± 0.089	0.953 ± 0.074	0.959 ± 0.07	0.917 ± 0.086	0.9 ± 0.056	0.921 ± 0.076	0.969 ± 0.1	0.89 ± 0.04
IGF2BP3 (UniProt O00425)	0.95 ± 0.047	0.962 ± 0.062	0.926 ± 0.053	0.891 ± 0.077	0.865 ± 0.068	0.884 ± 0.074	0.878 ± 0.058	0.847 ± 0.07
CCNT1 (UniProt O60563)	0.958 ± 0.073	1.03 ± 0.054	1.05 ± 0.1	1.15 ± 0.0016	1.28 ± 0.11	1.43 ± 0.039	1.51 ± 0.19	1.68 ± 0.11
MAN2B1 (UniProt O00754)	1.05 ± 0.022	1.03 ± 0.095	0.99 ± 0.066	0.959 ± 0.093	0.973 ± 0.037	0.972 ± 0.051	0.918 ± 0.027	0.941 ± 0.028
UniProt O43865	0.969 ± 0.025	0.99 ± 0.044	0.959 ± 0.057	0.944 ± 0.025	0.914 ± 0.021	0.955 ± 0.029	0.973 ± 0.056	0.98 ± 0.047
UniProt O60271 and related entries	0.995 ± 0.052	0.971 ± 0.047	0.994 ± 0.05	0.958 ± 0.051	0.969 ± 0.066	0.942 ± 0.035	1 ± 0.032	0.977 ± 0.046
SMARCA5 (UniProt O60264)	1.06 ± 0.0097	1.07 ± 0.046	1.06 ± 0.039	1.07 ± 0.058	1.14 ± 0.066	1.12 ± 0.1	1.18 ± 0.099	1.17 ± 0.084
AKAP8 (UniProt O43823)	0.978 ± 0.067	0.939 ± 0.05	1.02 ± 0.055	0.974 ± 0.1	1.01 ± 0.094	0.999 ± 0.065	1.06 ± 0.058	1.02 ± 0.11
KIF1C (UniProt O43896)	1.02 ± 0.13	1.03 ± 0.061	0.998 ± 0.04	0.973 ± 0.033	0.928 ± 0.12	0.994 ± 0.017	0.959 ± 0.018	0.8934 ± 0.0057
M0QYS1 and related entries (UniProt P40429)	0.978 ± 0.097	1.01 ± 0.094	1.01 ± 0.15	0.979 ± 0.22	0.894 ± 0.26	0.82 ± 0.22	0.69 ± 0.17	0.839 ± 0.22
UniProt O14974 and related entries	0.964 ± 0.044	1 ± 0.041	1.03 ± 0.066	1.01 ± 0.085	0.999 ± 0.069	1.05 ± 0.071	1.1 ± 0.08	1.11 ± 0.1
UniProt O43670-2	1.01 ± 0.048	1.08 ± 0.072	1.1 ± 0.013	1.13 ± 0.068	1.12 ± 0.068	1.17 ± 0.079	1.18 ± 0.051	1.22 ± 0.066
EIF3F (UniProt O00303)	0.994 ± 0.048	0.992 ± 0.01	1.04 ± 0.045	1.06 ± 0.075	1.15 ± 0.12	1.23 ± 0.14	1.29 ± 0.12	1.44 ± 0.18
SPTLC2 (UniProt O15270)	1.06 ± 0.09	1.07 ± 0.079	0.967 ± 0.06	1.02 ± 0.14	0.999 ± 0.13	0.989 ± 0.097	0.929 ± 0.042	0.907 ± 0.05
UniProt O14617 and related entries	1.03 ± 0.04	1.02 ± 0.053	0.993 ± 0.041	0.986 ± 0.046	0.975 ± 0.039	0.993 ± 0.035	1.03 ± 0.037	0.9725 ± 0.0091
ARPC2 (UniProt O15144)	0.993 ± 0.022	1.07 ± 0.068	0.946 ± 0.025	0.977 ± 0.063	0.947 ± 0.039	0.971 ± 0.044	0.9041 ± 0.0029	0.882 ± 0.054
UniProt O60568 and related entries	1.11 ± 0.13	1.09 ± 0.021	0.992 ± 0.034	1.01 ± 0.012	1.03 ± 0.011	1.04 ± 0.032	1.01 ± 0.077	1.02 ± 0.036
UniProt O14880 and related entries	0.98 ± 0.15	0.999 ± 0.12	0.98 ± 0.13	0.953 ± 0.14	0.947 ± 0.15	0.943 ± 0.15	0.906 ± 0.18	0.906 ± 0.16

Some of the entries above in a different format:
UniProt O43913 and related entries
  NP40-soluble protein abundance (concentration: 0.1mM): 1.07 ± 0.04; NP40-soluble protein abundance (concentration: 0.5mM): 1.12 ± 0.079; NP40-soluble protein abundance (concentration: 1mM): 0.993 ± 0.075; NP40-soluble protein abundance (concentration: 2mM): 1 ± 0.078; NP40-soluble protein abundance (concentration: 4mM): 1.01 ± 0.06; NP40-soluble protein abundance (concentration: 6mM): 0.982 ± 0.013; NP40-soluble protein abundance (concentration: 8mM): 1 ± 0.038; NP40-soluble protein abundance (concentration: 10mM): 1.01 ± 0.074
UniProt O14545 and related entries
  NP40-soluble protein abundance (concentration: 0.1mM): 1.09 ± 0.079; NP40-soluble protein abundance (concentration: 0.5mM): 1.01 ± 0.049; NP40-soluble protein abundance (concentration: 1mM): 1.08 ± 0.15; NP40-soluble protein abundance (concentration: 2mM): 1.05 ± 0.062; NP40-soluble protein abundance (concentration: 4mM): 1.04 ± 0.14; NP40-soluble protein abundance (concentration: 6mM): 1.07 ± 0.11; NP40-soluble protein abundance (concentration: 8mM): 1.06 ± 0.099; NP40-soluble protein abundance (concentration: 10mM): 1.03 ± 0.13
